Results of single-concentration screens

Results are given as percent effect.
How 0% and 100% were set is not recorded. Most values in the screen are low, and negative values occur.
This is an unselected part of the compounds tested.

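Whole-parasite assay of Trypanosoma brucei over 72 hours; the read-out is not stated. Tested at 30 µM. Direction is inferred from retests: higher values go with stronger inhibition. Values scatter widely below zero; nearly all retest evidence comes from the higher of the two concentrations used. Of about 64,000 compounds tested this way, about 940 (1.5%) reached 50% or more in at least one test.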

| compound | Percent Effect |
|---|---|
| `CCOC1CCCN(C(=O)c2cnc3c(cnn3C3CCCC3)c2)C1` (stereo not given) | -32.23 |
| `[H][C@@]12CN(C)CCO[C@]1([H])CN(Cc1nc(C)cs1)C2` | -50.45 |
| `Cc1ccc(S(=O)(=O)Cc2noc([C@@H]3C[C@@H](O)CN3C)n2)cc1` | -14.8 |
| `COCc1cc(CC2(NC3CCN(C)CC3)COC2)no1` | -14.49 |
| `CCC(=O)Nc1cccc(OCC(=O)N(C)Cc2nc(C)c[nH]2)c1` | 4.712 |
| `Cc1ccc(-n2cnnn2)cc1NCC(=O)Nc1ccccc1Cl` | -24.09 |
| `CCc1ncc(CN2CCOC(Cc3cccc(F)c3)C2)cn1` (stereo not given) | -57.81 |
| `Cc1ccc(C(C)N(C)C(=O)c2ccc(=O)n(C)c2)s1` (stereo not given) | -2.113 |
| `CC1C(=O)Nc2cccnc2N1S(=O)(=O)c1ccc(C#N)c(Cl)c1` (stereo not given) | 13.32 |
| `COCCNC(=O)N1CCOCC1c1c(C)nn(C)c1C` (stereo not given) | -5.208 |
| `CC(C)(C)c1nc(CN2CCC(N3CCCCC3)CC2)no1` | -59.04 |
| `CC(=O)N1CCN(Cc2c(C)ccc3ccccc23)CC(O)C1` (stereo not given) | -7.999 |
| `CCOc1ccccc1C(=O)Oc1cc(=O)n2cccc(C)c2n1` | -10.78 |
| `O=C(O)C(F)(F)F.[H][C@@]12CN(CC3CC3)C[C@]1([H])[C@@H](OC)CCN2C(=O)c1ccsc1` | 43.42 |
| `COc1ccc(-n2ccc(CNCc3ccc(OC)c(O)c3)n2)cc1` | -9.277 |
| `CC(NC(=O)CCn1cccn1)c1ccc(-n2ccnn2)cc1` (stereo not given) | -52.08 |
| `CCOc1cccc(NCc2cnc(N3CCN(C)CC3)nc2)n1` | 22.9 |
| `CCc1oc2ccc(NS(C)(=O)=O)cc2c1C(=O)OC` | -12.6 |
| `COCCNC(=O)CN1CCN(c2nc3cc(C)ccc3o2)CC1` | -4.122 |
| `O=C(Cc1ccc2c(c1)OCCO2)N1CCCC(n2ccnc2)C1` (stereo not given) | -41.71 |
| `Cc1ncoc1C(=O)N1CC[C@@H](O)[C@@H](O)[C@H](N2CCC(F)(F)CC2)C1` | -18.73 |
| `Cc1ccc(C2(CN3CCN(Cc4cn(C)nc4C)CC3)CC2)cc1.Cl` | 6.807 |
| `Cc1noc(C2CCCN(C(=O)CCNc3ncccn3)C2)n1` (stereo not given) | 3.807 |
| `CC(=O)N[C@@H]1CN(c2nc(C(N)=O)cs2)C[C@H]1c1ccc(C)o1` | -7.706 |
| `CCCc1noc(C2CCN(C(=O)CCn3nc(C)cc3C)CC2)n1` | -17.83 |
| `Cc1csc(N2CCN(C(=O)c3cc(C4CC4)[nH]n3)CC2)n1` | -10.07 |
| `O=C1CC(c2ccc3c(c2)OCO3)c2c(n3ccsc3nc2=O)N1` (stereo not given) | -7.949 |
| `CC(=O)N1CCCC(C(=O)NCCc2ccc(F)c(Br)c2)C1` (stereo not given) | -35.75 |
| `Cc1ccoc1C(=O)N1CC(C(=O)NCC2CC2)C2(CCOCC2)C1` (stereo not given) | -33.15 |
| `O=c1[nH]c(-c2ccncc2)ncc1-c1ccnc(NC2CCCCC2)n1` | -18.66 |
| `COc1ccc(CN2CC[C@@H](O)[C@@H]2Cc2cnn(C)c2)cc1.O=C(O)C(F)(F)F` | -74.68 |
| `O=C(c1ncn2c(C3CCN(CC4CC4)CC3)ccnc12)N1CCCC1` | -64.15 |
| `Cc1ccccc1CN1CCN(C(=O)c2ccn(C(C)(C)C)c2)CC1` | -33.75 |
| `Fc1ccc(CN2CCC3(CC2)CN(c2ccccn2)CCO3)cc1.O=C(O)C(F)(F)F.O=C(O)C(F)(F)F` | -33.71 |
| `C[C@H](NC(=O)OC(C)(C)C)c1nnc(S(=O)(=O)Cc2cccc(F)c2)o1` | -7.865 |
| `CN(C)CC(=O)N1CCC2(CC1)CN(Cc1cccnc1)C(=O)CO2` | -22.37 |
| `NC(=O)CCn1ccc(NC(=O)c2ccc(OCC3CC3)cc2)n1` | -33.43 |
| `Cc1ncc(CN(C)CC2CCCN2c2cccnn2)s1` (stereo not given) | -4.912 |
| `Cn1ncc2c1NC(=O)CC2c1ccc(Cl)cc1Cl` (stereo not given) | -3.016 |
| `COCCC(=O)N(C)CCC1=CCN(C)CC1` | -35.14 |
| `O=C(C1CCOC1)N1CCC2(CC1)CN(Cc1nccs1)CCO2` (stereo not given) | -17.85 |
| `CCn1cc(CN(C)S(=O)(=O)c2cc(Cl)ccc2Cl)cn1` | -49.41 |
| `CC(CNC(=O)c1cccc(C#N)c1)N1CCc2ccccc21` (stereo not given) | -3.855 |
| `COc1cc(C)nc(N2CCN(C(=O)CNC(C)(C)C)CC2)n1` | -27.64 |
| `CCC(C(=O)NC1CCCCC1)n1ccc2ncccc2c1=O` (stereo not given) | 4.021 |
| `[H][C@@]12CCN(C(=O)C3CCCC3)[C@]1([H])C(=O)N(c1ccc(C)cc1)C(=O)N2` | -24.17 |
| `O=S(=O)(c1c(N2CCCCC2)ccc2nonc12)N1CCCCC1` | 0.171 |
| `CCC(=O)N1CCCN(c2cncc(-n3nc(C)cc3C)n2)CC1` | -19.08 |
| `CCn1cnnc1CN(C)Cc1nc(-c2cc(OC)ccc2F)oc1C` | -24.61 |
| `CN1CCC(N(Cc2ccco2)S(=O)(=O)c2ccc(Cl)cc2)CC1` | -3.959 |
| `Oc1nnc(-c2ccccc2)c2sc(N3CCCCC3)nc12` | -0.4358 |
| `COc1cc(I)c(Cl)cc1C(=O)N(C)C` | -51.26 |
| `COc1ccccc1CN(C)C(=O)c1cc(CN2CCC(O)CC2)on1` | -40.76 |
| `COc1cc(OC)cc(C2CCN(CC(=O)NCC(F)(F)F)C2)c1` (stereo not given) | -5.158 |
| `O=C(O)C(F)(F)F.[H][C@@]12CN(C(=O)c3ccsc3)C[C@]1([H])C(=O)N(Cc1cccnc1)C2` | -3.652 |
| `CC(=O)NCCNC(=O)NCCCc1cccc(F)c1` | -13.82 |
| `COCCc1noc(CNC2CCc3nc(C(C)C)nn3C2)n1` (stereo not given) | -15.54 |
| `[H][C@@]12CS(=O)(=O)C[C@]1([H])N(Cc1cccc(O)c1)CCN2CC1CC1` | 2.05 |
| `O=C(CCc1ccccc1)N[C@H]1CC[C@@]2(CCC(=O)N2)CC1` | 4.972 |
| `CN1C(=O)C2(CCN(Cc3cccnc3)CC2)c2cccc(F)c21.Cl` | -29.58 |
| `[H][C@]12CNC[C@@]1([H])[C@H](C(=O)NCc1ccccn1)COC2` | 2.285 |
| `CC(=O)N1CCC(c2noc(C3CCC(=O)N3)n2)CC1` (stereo not given) | -4.884 |
| `O=C(Nc1ccccc1OC1CCOC1)c1ccon1` (stereo not given) | -35.18 |
| `Cc1nc(NC(=O)c2c(-n3cnnn3)sc3c2CCC3)sc1C` | -22.63 |
| `CCOc1nnc(CN2CCC(N(C)Cc3noc(C)n3)C2)s1` (stereo not given) | -30.56 |
| `CCn1c(C)nnc1SCCNC(=O)c1cnc(C(C)(C)C)nc1O` | -5.276 |
| `CC(=O)NCCOc1cccc(Br)c1` | -11.24 |
| `Cc1ccc(C(=O)N2CCC(Oc3ccc(C)c(C)c3)CC2)c(=O)[nH]1` | 13.96 |
| `Cc1c(COC(C)C)cccc1NC(=O)N1CC[C@H](O)C1` | 4.723 |
| `COCCN(C)CC1CCCN1S(=O)(=O)c1cccc(F)c1F` (stereo not given) | -0.562 |
| `Cc1nc(N(C)C/C=C/c2ccccc2)c2cnn(C)c2n1` | 8.25 |
| `NC(=O)c1cnc(NC(=O)CCc2ccco2)c(Cl)c1` | -45.06 |
| `Cc1nc(CN2CCC(CNC(=O)Nc3ccccc3)CC2)oc1C` | -21.16 |
| `CCn1nccc1CNC(=O)C(C)n1cc2c(n1)c(C)nn2C` (stereo not given) | 28.99 |
| `CCOCC1COCCC12CCN(C(=O)CCOC)CC2` (stereo not given) | -41.45 |
| `Clc1cc(CN2CCCC(Cn3cncn3)C2)c2ncccc2c1` (stereo not given) | -9.994 |
| `Cc1nc(CN2CCCN(CC(=O)N(C)CCC#N)CC2)no1` | -24.61 |
| `[H][C@]12CN(Cc3cccc4[nH]ccc34)C[C@]1([H])N(C1CCOCC1)C(=O)CO2` | 13.12 |
| `[H][C@]12CC[C@]([H])(CN(C)C1)N(C(=O)c1ccc(-c3ccccc3OC)cc1)C2` | -45.21 |
| `COC1COC2(CCN(S(=O)(=O)c3ccc(F)cc3)CC2)C1` (stereo not given) | -16.08 |
| `Cc1csc(CNC(=O)NC2CCCc3c2cnn3CCO)n1` (stereo not given) | 19.95 |
| `O=C1CN([C@@H]2CC[C@@H](NS(=O)(=O)c3ccccc3F)[C@H]2O)CCN1` | -21.7 |
| `Cc1noc(C2CCN(C(C)c3nc(C4CC4)no3)CC2)n1` (stereo not given) | -39.02 |

The last 9 entries again:

compound	Percent Effect
CCOCC1COCCC12CCN(C(=O)CCOC)CC2 (stereo not given)	-41.45
Clc1cc(CN2CCCC(Cn3cncn3)C2)c2ncccc2c1 (stereo not given)	-9.994
Cc1nc(CN2CCCN(CC(=O)N(C)CCC#N)CC2)no1	-24.61
[H][C@]12CN(Cc3cccc4[nH]ccc34)C[C@]1([H])N(C1CCOCC1)C(=O)CO2	13.12
[H][C@]12CC[C@]([H])(CN(C)C1)N(C(=O)c1ccc(-c3ccccc3OC)cc1)C2	-45.21
COC1COC2(CCN(S(=O)(=O)c3ccc(F)cc3)CC2)C1 (stereo not given)	-16.08
Cc1csc(CNC(=O)NC2CCCc3c2cnn3CCO)n1 (stereo not given)	19.95
O=C1CN([C@@H]2CC[C@@H](NS(=O)(=O)c3ccccc3F)[C@H]2O)CCN1	-21.7
Cc1noc(C2CCN(C(C)c3nc(C4CC4)no3)CC2)n1 (stereo not given)	-39.02

The values are deposited in ChEMBL (CHEMBL3988442, “University of Dundee, Small-Polar-MMV Screening Library” (2021)).